Laboratory results reported in paper PMC2908686.
These are yes or no findings as the source states them, for the method shown. In cells and extracts the contact can be indirect. Some results given as binding are weak or reduced against the parent protein; the word gives no strength. For some of these results: Tags and fused reporters may be left off the sequences shown. Values belong to the molecule of their own block, whether it stands above or below them.

Protein sequences, listed by entry. Tags and fused reporters are not part of them.
UniProt P10275: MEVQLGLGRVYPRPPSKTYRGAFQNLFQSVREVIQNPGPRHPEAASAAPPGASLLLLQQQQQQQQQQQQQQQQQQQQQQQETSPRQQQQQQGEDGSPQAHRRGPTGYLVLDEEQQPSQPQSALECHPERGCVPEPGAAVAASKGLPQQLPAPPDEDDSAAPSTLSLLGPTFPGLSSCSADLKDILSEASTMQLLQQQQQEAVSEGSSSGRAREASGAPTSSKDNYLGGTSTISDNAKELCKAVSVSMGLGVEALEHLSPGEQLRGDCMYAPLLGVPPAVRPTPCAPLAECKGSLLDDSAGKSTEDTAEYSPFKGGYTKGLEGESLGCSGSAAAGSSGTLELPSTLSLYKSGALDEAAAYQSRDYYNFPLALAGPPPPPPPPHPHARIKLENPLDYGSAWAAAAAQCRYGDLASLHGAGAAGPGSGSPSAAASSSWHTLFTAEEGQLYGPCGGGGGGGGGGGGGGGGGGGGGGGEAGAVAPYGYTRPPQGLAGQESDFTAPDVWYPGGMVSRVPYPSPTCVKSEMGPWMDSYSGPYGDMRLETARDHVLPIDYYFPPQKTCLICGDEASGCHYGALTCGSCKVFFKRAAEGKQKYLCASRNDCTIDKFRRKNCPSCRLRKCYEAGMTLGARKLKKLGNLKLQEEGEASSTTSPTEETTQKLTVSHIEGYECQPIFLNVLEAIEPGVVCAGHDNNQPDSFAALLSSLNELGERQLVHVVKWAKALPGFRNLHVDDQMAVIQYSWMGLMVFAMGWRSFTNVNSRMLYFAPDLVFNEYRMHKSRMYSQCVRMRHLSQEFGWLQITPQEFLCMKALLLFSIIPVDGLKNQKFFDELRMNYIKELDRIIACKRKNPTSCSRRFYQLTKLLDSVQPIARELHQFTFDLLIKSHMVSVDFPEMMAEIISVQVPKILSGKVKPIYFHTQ
UniProt P04150: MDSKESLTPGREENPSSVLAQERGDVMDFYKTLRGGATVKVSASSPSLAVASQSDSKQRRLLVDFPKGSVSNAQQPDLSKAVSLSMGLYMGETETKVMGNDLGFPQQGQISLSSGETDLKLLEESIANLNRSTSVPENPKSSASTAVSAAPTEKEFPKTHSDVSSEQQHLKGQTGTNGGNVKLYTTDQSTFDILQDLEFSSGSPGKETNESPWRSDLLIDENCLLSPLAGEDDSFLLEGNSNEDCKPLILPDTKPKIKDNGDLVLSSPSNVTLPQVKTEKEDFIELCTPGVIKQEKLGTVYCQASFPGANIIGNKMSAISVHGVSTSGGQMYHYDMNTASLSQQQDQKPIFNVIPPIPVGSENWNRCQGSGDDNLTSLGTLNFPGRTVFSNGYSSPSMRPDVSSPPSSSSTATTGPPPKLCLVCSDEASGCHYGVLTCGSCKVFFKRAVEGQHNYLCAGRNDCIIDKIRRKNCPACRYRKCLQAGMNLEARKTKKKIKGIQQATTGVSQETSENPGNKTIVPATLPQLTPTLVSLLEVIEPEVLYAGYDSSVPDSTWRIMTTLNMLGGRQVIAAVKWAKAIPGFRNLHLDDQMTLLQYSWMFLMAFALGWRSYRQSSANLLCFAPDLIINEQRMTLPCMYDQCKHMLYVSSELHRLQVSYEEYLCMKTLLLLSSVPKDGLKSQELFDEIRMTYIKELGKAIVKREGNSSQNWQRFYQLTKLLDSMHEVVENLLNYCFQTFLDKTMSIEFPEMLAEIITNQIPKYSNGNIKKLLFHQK
UniProt P08235: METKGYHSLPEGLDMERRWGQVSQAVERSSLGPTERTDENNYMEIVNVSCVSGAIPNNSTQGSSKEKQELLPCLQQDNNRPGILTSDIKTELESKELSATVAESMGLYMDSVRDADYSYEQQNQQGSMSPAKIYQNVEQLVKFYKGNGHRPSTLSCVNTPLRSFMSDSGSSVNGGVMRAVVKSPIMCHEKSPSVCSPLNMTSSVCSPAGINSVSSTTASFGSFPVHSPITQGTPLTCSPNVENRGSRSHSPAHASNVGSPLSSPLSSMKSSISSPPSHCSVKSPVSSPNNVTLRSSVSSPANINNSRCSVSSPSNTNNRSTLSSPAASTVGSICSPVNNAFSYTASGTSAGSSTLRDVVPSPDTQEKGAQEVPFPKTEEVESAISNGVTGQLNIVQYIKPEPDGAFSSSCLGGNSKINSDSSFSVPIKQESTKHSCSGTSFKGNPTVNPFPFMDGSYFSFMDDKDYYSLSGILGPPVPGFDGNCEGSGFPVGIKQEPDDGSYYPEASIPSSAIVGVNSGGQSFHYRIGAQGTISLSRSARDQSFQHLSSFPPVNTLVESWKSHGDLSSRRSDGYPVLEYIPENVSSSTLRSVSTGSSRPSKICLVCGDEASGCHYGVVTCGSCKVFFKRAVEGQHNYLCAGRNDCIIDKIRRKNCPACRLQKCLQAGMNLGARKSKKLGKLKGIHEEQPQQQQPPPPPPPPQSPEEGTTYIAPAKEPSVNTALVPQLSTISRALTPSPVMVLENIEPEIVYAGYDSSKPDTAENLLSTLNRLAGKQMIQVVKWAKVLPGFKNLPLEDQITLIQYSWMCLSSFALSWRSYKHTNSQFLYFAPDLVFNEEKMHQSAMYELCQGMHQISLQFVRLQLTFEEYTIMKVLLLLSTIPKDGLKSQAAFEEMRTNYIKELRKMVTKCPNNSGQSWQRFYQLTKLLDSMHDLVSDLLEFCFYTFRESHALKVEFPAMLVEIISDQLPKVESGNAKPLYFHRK
UniProt P06401: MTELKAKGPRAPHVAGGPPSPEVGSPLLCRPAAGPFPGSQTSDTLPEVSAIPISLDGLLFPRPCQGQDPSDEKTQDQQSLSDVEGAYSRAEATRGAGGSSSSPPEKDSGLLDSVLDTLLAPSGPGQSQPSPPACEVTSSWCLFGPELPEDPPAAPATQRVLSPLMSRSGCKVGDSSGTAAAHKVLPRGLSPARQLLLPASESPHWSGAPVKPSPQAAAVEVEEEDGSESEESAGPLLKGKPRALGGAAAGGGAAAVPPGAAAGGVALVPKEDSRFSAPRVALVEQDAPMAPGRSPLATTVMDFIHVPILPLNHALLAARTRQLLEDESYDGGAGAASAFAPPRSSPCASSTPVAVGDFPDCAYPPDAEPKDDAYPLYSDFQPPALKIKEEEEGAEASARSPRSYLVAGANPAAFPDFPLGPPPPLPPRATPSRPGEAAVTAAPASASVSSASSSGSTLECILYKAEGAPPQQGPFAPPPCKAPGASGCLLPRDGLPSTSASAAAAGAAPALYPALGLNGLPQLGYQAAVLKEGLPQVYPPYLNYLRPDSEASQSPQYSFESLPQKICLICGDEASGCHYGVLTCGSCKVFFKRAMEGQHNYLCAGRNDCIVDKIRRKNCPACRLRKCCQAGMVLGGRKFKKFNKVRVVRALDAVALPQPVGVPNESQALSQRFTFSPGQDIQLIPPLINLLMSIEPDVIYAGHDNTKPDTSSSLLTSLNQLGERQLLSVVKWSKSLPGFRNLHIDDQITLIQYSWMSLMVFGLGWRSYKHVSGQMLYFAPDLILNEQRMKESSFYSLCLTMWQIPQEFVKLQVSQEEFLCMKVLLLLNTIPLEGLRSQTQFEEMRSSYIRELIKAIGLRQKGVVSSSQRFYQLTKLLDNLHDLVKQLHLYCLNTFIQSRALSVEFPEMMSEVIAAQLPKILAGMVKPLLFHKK
UniProt Q08752: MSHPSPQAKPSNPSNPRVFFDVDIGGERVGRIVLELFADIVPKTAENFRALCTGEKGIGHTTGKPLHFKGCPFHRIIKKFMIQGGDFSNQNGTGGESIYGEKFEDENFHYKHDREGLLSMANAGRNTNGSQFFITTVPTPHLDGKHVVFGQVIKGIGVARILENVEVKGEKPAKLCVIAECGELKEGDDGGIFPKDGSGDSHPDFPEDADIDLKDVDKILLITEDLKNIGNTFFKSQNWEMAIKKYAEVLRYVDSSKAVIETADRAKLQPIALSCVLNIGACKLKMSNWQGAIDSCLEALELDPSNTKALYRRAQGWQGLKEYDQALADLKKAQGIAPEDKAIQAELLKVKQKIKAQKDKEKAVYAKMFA

Tests used:
[1] = molecular target: androgen receptor (AR), N-terminally HA-tagged (UniProt P10275); assay: co-IP; HEK-293 co-expressing an HA-tagged steroid receptor and a FLAG-tagged TPR protein, steroid-free serum; Lysis-Buffer A' (130 mM NaCl, 20 mM Na2MoO4, 20 mM Tris-HCl pH 7.5, 0.5% Triton X-100); receptor precipitated on anti-HA agarose overnight at 4°C, HA-peptide elution; co-precipitated TPR proteins by FLAG immunoblot, densitometry
[2] = molecular target: glucocorticoid receptor (GR), N-terminally HA-tagged (UniProt P04150); assay: as above
[3] = molecular target: mineralocorticoid receptor (MR), N-terminally HA-tagged (UniProt P08235); assay: as above
[4] = molecular target: progesterone receptor (PR), N-terminally HA-tagged (UniProt P06401); assay: as above
[5] = molecular target: T1, FK506 binding protein 52 (FKBP52), C-terminal FLAG fusion (UniProt Q02790); assay: co-IP; same FLAG-IPs of the TPR proteins from HEK-293 lysates; co-precipitated endogenous Hsp90 and Hsp70 by Coomassie staining (Hsp70 background on the resin subtracted), p23 by immunoblot; normalized to the precipitated TPR cofactor; experiments with different steroid receptors pooled
T1 sequence: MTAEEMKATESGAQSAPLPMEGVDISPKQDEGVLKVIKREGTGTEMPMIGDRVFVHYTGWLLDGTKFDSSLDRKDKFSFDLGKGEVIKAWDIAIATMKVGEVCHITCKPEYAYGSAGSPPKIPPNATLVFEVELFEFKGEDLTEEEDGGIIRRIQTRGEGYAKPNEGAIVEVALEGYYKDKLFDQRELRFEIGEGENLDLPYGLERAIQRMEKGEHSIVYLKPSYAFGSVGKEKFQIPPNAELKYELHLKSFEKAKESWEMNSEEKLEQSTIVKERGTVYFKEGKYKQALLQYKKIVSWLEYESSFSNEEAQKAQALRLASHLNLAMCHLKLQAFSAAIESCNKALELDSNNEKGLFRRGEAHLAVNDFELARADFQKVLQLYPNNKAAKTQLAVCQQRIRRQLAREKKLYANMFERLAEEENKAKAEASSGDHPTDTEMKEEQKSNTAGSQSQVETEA

[6] = molecular target: T2, protein phosphatase 5 (PP5), C-terminal FLAG fusion (UniProt P53041); assay: as above
T2 sequence: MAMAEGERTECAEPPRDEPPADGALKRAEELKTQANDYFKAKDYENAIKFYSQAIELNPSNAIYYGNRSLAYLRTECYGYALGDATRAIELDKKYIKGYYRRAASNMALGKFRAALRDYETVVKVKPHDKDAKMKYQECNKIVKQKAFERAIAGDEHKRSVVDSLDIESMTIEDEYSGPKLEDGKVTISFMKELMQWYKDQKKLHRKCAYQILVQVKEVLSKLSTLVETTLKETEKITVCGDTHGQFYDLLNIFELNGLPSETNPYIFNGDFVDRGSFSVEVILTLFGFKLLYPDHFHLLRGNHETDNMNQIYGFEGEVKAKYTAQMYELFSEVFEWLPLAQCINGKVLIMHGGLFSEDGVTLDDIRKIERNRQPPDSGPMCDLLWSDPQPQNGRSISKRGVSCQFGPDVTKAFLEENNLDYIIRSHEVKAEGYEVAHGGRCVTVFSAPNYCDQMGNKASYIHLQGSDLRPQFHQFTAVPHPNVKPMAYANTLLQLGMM

[7] = molecular target: T3, FK506 binding protein 51 (FKBP51), C-terminal FLAG fusion, Q13451; assay: as above; conditions: remark: other sources report otherwise
T3 chain: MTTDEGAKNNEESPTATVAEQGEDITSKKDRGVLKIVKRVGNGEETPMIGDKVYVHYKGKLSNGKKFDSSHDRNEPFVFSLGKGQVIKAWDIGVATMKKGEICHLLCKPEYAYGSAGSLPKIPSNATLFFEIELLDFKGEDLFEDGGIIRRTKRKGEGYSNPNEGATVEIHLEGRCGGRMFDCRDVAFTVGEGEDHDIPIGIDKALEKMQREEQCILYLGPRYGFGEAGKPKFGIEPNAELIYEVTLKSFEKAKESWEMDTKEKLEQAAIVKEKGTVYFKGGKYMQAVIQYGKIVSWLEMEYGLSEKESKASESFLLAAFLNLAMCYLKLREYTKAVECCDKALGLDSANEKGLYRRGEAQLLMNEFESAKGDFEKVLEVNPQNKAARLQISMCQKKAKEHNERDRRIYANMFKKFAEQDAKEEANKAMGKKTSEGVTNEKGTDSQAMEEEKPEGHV

binding [1]: binds weakly
binding [2]: binds weakly
binding [3]: binds weakly
binding [4]: binds weakly
Molecule: Cyclophillin-40 (Cyp40), C-terminal FLAG fusion (from UniProt Q08752 1-370)

binding [5]: binds
binding [6]: binds
B1: p23, endogenous (protein, UniProt Q15185 1-160)
chain: MQPASAKWYDRRDYVFIEFCVEDSKDVNVNFEKSKLTFSCLGGSDNFKHLNEIDLFHCIDPNDSKHKRTDRSILCCLRKGESGQSWPRLTKERAKLNWLSVDFNNWKDWEDDSDEDMSNFDRFSEMMNNMGGDEDVDLPEVDGADDDSQDSDDEKMPDLE

binding [7]: binds
B2: p23, endogenous, Q15185 1-160 (protein)
chain: B1 chain
